Assay results taken from patent US20030223993.
The exact form of at least one protein or probe is not confirmed. For some assays here: Negatives hold for the conditions tested. For some assays here: Where a protein sequence is shown, tags need not be part of it.

Chains of the proteins cited; added tags and fusions are not shown. A line that says so, or that is headed by a name, gives the form on record, which may keep a tag or linker.
SXR:RXR heterodimer (SXR, human PXR ortholog) (Homo sapiens), one chain, as listed by the source: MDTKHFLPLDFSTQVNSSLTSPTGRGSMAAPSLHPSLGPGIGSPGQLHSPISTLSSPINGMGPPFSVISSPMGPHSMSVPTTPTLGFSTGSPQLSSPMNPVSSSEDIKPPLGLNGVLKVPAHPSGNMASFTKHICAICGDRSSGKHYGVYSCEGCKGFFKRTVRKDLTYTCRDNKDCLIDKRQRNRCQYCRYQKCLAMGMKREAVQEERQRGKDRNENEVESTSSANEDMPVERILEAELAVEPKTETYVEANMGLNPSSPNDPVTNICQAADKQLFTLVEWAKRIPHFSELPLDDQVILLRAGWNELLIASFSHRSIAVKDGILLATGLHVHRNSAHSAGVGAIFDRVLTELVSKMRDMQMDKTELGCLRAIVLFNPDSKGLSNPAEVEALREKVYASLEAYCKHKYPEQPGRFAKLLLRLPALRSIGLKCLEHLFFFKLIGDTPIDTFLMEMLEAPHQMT

Legend:
[1] = molecular target: T1, SXR (full-length) (Homo sapiens) (UniProt O75469); assay: activity in cells; conditions: RIF, protein in cells, variant of CYP3A23 DR-3 element, only the site is given
T1 sequence: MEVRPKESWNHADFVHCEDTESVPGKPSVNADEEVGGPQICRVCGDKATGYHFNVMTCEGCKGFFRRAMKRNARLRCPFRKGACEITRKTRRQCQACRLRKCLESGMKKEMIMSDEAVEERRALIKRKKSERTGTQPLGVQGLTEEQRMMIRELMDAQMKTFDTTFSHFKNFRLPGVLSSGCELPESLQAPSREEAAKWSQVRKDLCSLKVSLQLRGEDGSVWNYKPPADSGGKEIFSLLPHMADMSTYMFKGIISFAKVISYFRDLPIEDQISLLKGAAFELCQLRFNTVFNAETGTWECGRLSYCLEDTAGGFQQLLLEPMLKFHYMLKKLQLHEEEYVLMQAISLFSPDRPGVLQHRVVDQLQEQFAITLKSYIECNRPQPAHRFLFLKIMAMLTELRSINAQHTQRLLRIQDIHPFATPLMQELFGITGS

PXR:RXR heterodimer = assay: EMSA; conditions: CITED Blumberg et al. 1998; efficient binding; protein translated in vitro
[2] = test system: SXR:RXR heterodimer (SXR, human PXR ortholog) (Homo sapiens); assay: EMSA; conditions: CITED Blumberg et al. 1998; efficient binding; protein translated in vitro; protein details: initiator Leu converted to Met in SXR construct
[3] = activation by PCN, CTZ abolished

ACAACTTCATGAACT (double strand) [CYP3A23 DR3/M2]
activity on this sequence [1, 3]: not active

TGAACTTCAAAGGAGGTCA (double strand) [CYP3A23 DR3/IR6]
activity on this sequence ([1]; inducibility by PCN, CTZ rescued): active

TGAACTTCATGAACT (double strand) [CYP3A23 DR-3 element]
binding result (PXR:RXR heterodimer): binds | binding result [2]: binds

TGTTCTTCATGTTCT (double strand) [CYP3A23 DR3/M1]
activity on this sequence [1, 3]: not active
